In the supplement of paper PMC7666118:
Some of the results follow.

Amino acid sequences for entries named in this document (tags omitted). A change or cut given only in a name is not applied to a line headed by its entry.
UniProt P54198, whole entry: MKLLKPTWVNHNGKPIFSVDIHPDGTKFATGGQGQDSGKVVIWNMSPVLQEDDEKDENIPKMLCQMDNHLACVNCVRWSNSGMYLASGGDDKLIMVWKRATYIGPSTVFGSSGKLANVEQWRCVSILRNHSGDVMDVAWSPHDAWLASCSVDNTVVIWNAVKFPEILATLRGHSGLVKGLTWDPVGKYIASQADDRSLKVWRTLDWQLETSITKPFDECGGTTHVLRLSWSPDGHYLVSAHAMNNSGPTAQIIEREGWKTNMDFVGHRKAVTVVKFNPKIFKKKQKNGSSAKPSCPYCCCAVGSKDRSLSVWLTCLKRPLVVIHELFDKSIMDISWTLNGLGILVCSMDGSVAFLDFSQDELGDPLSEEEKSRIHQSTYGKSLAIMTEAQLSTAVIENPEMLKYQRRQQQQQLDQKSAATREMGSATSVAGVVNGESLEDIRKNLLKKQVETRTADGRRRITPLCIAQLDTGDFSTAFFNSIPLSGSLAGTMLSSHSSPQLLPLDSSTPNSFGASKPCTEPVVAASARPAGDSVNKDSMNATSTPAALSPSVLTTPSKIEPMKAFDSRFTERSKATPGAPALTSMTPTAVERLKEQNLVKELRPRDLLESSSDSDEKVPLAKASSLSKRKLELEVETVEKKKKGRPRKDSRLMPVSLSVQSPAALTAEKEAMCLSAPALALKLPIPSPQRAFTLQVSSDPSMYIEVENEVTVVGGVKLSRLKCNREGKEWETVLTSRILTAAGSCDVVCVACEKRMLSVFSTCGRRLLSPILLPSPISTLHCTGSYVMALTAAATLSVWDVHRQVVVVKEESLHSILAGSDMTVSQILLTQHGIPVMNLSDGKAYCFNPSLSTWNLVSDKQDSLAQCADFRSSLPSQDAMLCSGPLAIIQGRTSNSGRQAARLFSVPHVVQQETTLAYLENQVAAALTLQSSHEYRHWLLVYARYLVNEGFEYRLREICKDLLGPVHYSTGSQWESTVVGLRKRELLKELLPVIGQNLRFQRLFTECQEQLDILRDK
UniProt Q9Y5Q9: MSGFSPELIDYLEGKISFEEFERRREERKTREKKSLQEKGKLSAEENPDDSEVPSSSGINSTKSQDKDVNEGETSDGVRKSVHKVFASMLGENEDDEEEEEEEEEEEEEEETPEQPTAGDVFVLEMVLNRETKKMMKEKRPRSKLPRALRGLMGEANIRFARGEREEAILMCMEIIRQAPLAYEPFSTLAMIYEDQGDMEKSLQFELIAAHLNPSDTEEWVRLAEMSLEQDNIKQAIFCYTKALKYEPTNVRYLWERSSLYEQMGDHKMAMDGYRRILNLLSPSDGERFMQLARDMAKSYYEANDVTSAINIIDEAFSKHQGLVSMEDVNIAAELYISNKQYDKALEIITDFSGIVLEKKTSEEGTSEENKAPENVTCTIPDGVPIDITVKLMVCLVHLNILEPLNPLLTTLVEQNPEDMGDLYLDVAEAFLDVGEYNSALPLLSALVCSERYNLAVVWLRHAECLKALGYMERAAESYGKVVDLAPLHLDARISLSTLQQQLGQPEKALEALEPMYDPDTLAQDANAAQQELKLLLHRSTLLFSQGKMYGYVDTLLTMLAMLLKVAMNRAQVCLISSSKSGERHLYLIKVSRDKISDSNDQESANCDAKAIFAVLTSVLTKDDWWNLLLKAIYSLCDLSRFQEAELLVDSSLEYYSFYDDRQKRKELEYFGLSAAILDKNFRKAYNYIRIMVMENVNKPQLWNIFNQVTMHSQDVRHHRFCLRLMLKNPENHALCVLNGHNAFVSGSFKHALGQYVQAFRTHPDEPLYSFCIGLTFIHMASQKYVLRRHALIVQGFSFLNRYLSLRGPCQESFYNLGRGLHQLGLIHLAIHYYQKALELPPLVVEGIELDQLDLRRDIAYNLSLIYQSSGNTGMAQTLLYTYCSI
UniProt Q86VQ1: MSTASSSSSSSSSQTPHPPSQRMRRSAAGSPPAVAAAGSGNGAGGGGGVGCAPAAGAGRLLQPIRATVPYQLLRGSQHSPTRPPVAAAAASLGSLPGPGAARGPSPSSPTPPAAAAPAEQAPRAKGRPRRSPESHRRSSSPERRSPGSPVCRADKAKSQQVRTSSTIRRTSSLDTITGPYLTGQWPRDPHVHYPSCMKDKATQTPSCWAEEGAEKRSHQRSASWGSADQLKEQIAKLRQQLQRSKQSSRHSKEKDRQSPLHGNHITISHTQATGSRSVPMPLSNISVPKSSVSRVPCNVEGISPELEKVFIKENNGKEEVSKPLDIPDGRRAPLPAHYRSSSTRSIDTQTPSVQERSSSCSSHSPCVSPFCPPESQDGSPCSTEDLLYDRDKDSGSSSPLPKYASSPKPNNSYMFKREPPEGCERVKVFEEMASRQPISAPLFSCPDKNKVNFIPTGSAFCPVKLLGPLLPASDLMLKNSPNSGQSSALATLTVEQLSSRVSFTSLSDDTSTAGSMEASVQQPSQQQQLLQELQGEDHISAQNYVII
UniProt Q86WP2: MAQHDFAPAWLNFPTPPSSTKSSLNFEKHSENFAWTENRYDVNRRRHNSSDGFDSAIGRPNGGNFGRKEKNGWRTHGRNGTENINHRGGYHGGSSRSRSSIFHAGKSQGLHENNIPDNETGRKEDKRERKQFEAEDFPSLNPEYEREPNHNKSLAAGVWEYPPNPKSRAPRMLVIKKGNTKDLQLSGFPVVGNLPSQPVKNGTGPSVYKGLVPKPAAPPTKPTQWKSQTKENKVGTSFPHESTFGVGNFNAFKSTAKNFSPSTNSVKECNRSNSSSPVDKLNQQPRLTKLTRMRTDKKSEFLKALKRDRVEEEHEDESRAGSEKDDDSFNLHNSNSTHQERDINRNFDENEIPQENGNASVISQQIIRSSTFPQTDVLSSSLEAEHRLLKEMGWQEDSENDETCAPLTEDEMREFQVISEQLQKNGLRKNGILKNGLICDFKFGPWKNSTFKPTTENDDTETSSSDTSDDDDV
UniProt Q9NRV9: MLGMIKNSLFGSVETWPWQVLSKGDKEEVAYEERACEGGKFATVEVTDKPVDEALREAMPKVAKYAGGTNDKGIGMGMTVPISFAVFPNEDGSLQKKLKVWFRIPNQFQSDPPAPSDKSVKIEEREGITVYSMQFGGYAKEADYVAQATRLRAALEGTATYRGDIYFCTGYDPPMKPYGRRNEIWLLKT
UniProt P30679: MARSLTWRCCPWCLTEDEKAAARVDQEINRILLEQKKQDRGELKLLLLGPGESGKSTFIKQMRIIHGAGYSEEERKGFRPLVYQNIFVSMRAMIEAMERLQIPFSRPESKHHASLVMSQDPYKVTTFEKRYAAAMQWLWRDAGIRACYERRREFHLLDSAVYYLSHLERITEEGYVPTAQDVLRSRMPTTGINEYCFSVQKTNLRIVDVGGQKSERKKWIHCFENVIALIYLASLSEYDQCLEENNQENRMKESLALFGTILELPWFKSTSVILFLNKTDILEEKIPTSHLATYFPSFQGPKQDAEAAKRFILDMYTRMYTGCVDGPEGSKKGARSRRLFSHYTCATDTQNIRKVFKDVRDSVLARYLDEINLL
UniProt P19367: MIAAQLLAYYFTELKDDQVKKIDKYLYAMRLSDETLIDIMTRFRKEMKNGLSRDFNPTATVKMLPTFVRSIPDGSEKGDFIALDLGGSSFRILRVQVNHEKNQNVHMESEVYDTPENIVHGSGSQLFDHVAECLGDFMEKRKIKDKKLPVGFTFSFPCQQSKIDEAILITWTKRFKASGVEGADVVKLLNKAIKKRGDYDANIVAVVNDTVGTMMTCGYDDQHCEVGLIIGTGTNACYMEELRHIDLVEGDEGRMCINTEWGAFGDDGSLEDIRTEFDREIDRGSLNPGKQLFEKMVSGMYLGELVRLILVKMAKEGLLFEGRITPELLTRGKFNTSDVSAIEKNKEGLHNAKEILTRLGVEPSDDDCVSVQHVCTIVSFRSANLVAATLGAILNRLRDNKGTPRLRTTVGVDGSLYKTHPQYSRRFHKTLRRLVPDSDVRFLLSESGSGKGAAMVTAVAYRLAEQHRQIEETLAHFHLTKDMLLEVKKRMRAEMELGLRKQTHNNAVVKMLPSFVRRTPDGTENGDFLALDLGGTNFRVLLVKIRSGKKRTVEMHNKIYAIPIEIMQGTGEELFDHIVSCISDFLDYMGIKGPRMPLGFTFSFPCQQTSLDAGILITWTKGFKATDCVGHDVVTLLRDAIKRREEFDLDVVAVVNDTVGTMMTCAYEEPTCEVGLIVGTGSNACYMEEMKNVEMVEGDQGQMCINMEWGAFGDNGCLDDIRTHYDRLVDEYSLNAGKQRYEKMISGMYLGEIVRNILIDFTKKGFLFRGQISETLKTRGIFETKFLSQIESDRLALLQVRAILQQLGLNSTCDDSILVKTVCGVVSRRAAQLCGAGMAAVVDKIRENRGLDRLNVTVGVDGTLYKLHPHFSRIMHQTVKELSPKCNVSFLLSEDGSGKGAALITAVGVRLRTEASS
UniProt Q14344, whole entry: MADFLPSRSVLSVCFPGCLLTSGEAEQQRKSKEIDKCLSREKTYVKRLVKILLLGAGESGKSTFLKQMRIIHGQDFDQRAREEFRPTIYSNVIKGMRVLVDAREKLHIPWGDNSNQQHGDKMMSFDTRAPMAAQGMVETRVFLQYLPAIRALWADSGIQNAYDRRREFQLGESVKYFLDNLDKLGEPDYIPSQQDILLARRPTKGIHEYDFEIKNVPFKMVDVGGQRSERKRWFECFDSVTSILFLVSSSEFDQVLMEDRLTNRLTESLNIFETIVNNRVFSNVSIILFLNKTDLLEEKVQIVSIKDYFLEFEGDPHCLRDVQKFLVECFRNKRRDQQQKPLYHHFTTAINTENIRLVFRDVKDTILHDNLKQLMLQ
UniProt P35754: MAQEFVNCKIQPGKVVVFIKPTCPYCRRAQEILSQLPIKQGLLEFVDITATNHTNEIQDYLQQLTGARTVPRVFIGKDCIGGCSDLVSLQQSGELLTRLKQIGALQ
UniProt Q9BW71: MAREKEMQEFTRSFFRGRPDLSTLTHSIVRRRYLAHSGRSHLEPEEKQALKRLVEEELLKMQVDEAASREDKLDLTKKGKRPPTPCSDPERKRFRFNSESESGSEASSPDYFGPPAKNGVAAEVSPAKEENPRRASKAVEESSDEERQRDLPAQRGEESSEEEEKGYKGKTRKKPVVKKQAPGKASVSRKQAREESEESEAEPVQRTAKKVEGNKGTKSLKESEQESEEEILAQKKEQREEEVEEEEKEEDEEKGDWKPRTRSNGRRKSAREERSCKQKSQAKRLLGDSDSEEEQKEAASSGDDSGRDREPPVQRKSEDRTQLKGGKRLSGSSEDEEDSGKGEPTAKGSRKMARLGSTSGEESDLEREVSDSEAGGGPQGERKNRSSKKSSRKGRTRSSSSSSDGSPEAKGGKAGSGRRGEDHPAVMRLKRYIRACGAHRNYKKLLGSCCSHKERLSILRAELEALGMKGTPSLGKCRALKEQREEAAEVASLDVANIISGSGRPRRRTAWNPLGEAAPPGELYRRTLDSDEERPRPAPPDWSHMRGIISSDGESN
UniProt P43250, whole entry, looked up: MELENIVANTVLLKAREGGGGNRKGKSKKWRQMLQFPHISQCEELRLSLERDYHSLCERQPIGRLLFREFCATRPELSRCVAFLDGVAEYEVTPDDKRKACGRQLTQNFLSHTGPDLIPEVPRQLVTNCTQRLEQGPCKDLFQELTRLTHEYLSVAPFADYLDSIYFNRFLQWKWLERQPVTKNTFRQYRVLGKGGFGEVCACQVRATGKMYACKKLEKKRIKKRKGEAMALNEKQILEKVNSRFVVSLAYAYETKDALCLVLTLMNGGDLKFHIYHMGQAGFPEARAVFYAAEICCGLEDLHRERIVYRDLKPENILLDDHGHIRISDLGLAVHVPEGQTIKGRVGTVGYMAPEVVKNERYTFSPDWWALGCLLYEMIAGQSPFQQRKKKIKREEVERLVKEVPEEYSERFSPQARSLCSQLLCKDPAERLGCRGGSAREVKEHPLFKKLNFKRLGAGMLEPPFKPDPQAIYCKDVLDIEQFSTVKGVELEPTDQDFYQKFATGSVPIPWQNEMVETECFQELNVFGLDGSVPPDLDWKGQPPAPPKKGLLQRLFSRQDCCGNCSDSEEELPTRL
UniProt P46926: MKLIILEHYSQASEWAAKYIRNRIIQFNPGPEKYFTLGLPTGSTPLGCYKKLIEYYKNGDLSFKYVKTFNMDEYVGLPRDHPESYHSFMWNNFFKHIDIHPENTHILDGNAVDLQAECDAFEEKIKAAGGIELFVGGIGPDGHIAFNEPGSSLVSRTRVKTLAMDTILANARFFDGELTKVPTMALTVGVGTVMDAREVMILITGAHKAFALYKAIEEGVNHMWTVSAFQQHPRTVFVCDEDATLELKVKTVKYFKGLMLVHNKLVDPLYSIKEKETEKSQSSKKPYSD
UniProt O75223: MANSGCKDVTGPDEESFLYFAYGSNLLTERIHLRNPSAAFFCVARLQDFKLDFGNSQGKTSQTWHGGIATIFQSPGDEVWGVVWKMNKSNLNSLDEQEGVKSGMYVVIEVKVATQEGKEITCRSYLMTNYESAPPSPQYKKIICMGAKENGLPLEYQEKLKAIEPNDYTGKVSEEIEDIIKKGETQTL

Compound: COc1ccc(Cn2ccc3ccc(C(=O)NO)cc32)cc1
Experiment: dose-dependent thermal stabilisation call (2D-TPP, DLPTP, 10% FDR) (binary (1 = stabilised)); higher = stabilised by the compound
Conditions: system: HL-60 intact cells; concentration range 0.04-10 µM

| Target | dose-dependent thermal stabilisation call |
| --- | --- |
| HIRA (UniProt P54198) | inactive: 0 |
| HEL308 (UniProt Q8TDG4) | inactive: 0 |
| GPSN2 (UniProt Q9NZ01) | inactive: 0 |
| HDHD2 (UniProt Q9H0R4) | inactive: 0 |
| GTF3C3 (UniProt Q9Y5Q9) | inactive: 0 |
| GLUL (UniProt P15104) | inactive: 0 |
| HLA-DRB1 (UniProt P01911) | inactive: 0 |
| GLCCI1 (UniProt Q86VQ1) | inactive: 0 |
| GRAMD1B (UniProt Q3KR37) | inactive: 0 |
| GPS1 (UniProt Q13098) | inactive: 0 |
| GTF2H3 (UniProt Q13889) | inactive: 0 |
| GPBP1 (UniProt Q86WP2) | inactive: 0 |
| GNL3L (UniProt Q9NVN8) | inactive: 0 |
| GPD1L (UniProt Q8N335) | inactive: 0 |
| GTF2H4 (UniProt Q92759) | inactive: 0 |
| HEXIM1 (UniProt O94992) | inactive: 0 |
| HERC2 (UniProt O95714) | inactive: 0 |
| HACL1 (UniProt Q9UJ83) | inactive: 0 |
| GPI (UniProt P06744) | inactive: 0 |

| Target | dose-dependent thermal stabilisation call |
| --- | --- |
| HDGF (UniProt P51858) | inactive: 0 |
| HEBP1 (UniProt Q9NRV9) | inactive: 0 |
| GNS (UniProt P15586) | inactive: 0 |
| GNA15 (UniProt P30679) | inactive: 0 |
| HK1 (UniProt P19367) | inactive: 0 |
| HAX1 (UniProt O00165) | inactive: 0 |
| GTPBP10 (UniProt A4D1E9) | inactive: 0 |
| GNA13 (UniProt Q14344) | inactive: 0 |
| GLRX (UniProt P35754) | inactive: 0 |
| GLA (UniProt P06280) | inactive: 0 |
| HIRIP3 (UniProt Q9BW71) | inactive: 0 |
| GRK6 (UniProt P43250) | inactive: 0 |
| HCLS1 (UniProt P14317) | inactive: 0 |
| GPR172A (UniProt Q9HAB3) | inactive: 0 |
| GNPDA1 (UniProt P46926) | inactive: 0 |
| GGCT (UniProt O75223) | inactive: 0 |
| HEXB (UniProt P07686) | inactive: 0 |
| GOSR1 (UniProt O95249) | inactive: 0 |
| GOLGB1 (UniProt Q14789) | inactive: 0 |

Reformatted bar-delimited: entries from further up.
Target | dose-dependent thermal stabilisation call
GNA13 (UniProt Q14344) | inactive: 0
GLRX (UniProt P35754) | inactive: 0
GLA (UniProt P06280) | inactive: 0
HIRIP3 (UniProt Q9BW71) | inactive: 0
GRK6 (UniProt P43250) | inactive: 0
HCLS1 (UniProt P14317) | inactive: 0
GPR172A (UniProt Q9HAB3) | inactive: 0
GNPDA1 (UniProt P46926) | inactive: 0
GGCT (UniProt O75223) | inactive: 0
HEXB (UniProt P07686) | inactive: 0
GOSR1 (UniProt O95249) | inactive: 0
